Where a chain is given by its changes, count along the chain named. Results are given in words; binding and its absence hold for the method and conditions named. Binding seen in cells or lysates may run through a third protein. Some entries that bind do so weakly or less than the wild type. For some of these results: Sequences can lack the tags named with a protein. Blank lines part the entries; values can stand above or below the molecule they belong to.
Experiments:
[1] = biological target: T1, FLAG-PPP1R21 FL (full-length protein phosphatase 1 regulatory subunit 21 with a FLAG tag) (human) (UniProt Q6ZMI0); assay: co-IP; HEK293T cells cotransfected with full-length or truncated FLAG-PPP1R21 along with Myc-PP1cs and HA-AEG-1 for 48 h; whole-cell lysates (0.5% CHAPS lysis buffer); IP with the anti-FLAG antibody; immunoblotting with anti-Myc and anti-HA
T1 sequence: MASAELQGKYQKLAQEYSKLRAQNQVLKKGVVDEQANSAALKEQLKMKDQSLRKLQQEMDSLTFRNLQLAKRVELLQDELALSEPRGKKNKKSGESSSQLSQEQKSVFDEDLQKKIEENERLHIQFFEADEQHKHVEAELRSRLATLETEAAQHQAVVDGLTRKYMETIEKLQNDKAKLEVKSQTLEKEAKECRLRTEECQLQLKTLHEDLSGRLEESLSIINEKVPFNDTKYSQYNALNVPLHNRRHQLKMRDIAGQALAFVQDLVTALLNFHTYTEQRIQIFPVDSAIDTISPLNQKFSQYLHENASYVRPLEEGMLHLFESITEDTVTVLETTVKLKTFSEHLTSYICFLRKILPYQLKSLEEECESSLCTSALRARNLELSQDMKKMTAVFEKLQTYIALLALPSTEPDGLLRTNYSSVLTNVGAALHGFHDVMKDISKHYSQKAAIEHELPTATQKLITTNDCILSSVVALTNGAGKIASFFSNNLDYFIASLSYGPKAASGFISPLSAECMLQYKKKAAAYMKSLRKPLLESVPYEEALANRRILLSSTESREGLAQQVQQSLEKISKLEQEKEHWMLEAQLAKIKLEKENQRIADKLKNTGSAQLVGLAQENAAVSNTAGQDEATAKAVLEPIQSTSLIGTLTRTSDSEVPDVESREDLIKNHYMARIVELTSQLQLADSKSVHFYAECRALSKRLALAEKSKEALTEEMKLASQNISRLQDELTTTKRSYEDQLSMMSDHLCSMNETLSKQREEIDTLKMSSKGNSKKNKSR

[2] = biological target: T2, HA-AEG-1 WT (astrocyte elevated gene-1, HA-tagged) (human) (UniProt Q86UE4); assay: co-IP; HEK293T cells transfected with HA-AEG-1 or FLAG-PPP1R21 plasmids for 48 h; whole-cell lysates (0.5% CHAPS lysis buffer); IP with anti-HA or anti-FLAG; endogenous partner detected by Western blotting
T2 sequence: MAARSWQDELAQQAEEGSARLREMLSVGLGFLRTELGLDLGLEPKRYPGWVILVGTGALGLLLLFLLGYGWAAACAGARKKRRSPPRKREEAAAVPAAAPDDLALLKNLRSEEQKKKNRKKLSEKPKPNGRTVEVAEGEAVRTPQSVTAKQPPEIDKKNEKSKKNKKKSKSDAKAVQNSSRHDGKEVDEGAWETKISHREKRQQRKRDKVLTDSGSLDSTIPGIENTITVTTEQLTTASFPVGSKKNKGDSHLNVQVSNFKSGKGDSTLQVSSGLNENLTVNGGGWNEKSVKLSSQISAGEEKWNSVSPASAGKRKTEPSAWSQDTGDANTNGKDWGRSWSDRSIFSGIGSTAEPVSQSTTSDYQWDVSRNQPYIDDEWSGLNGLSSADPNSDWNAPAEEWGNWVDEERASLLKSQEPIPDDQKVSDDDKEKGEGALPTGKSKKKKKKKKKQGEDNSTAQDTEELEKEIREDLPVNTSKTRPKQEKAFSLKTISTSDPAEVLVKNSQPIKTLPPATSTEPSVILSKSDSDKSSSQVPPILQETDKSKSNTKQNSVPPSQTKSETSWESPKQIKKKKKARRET

[3] = biological target: T1, FLAG-PPP1R21 FL (full-length protein phosphatase 1 regulatory subunit 21 with a FLAG tag) (human); assay: as above
[4] = biological target: T3, AEG-1 S308/426D double mutant with HA tag, stably expressed in BGC823 (human) (UniProt Q86UE4); assay: co-IP; BGC823 cells stably expressing AEG-1 WT or S308/426D (with HA tag), cultured for 24 h; whole-cell lysates (0.5% CHAPS lysis buffer); IP with the anti-HA antibody; Western blotting
T3 sequence: T2 sequence with S308D, S426D

[5] = biological target: T4, AEG-1 WT with HA tag, stably expressed in BGC823 (human) (UniProt Q86UE4); assay: as above
T4 sequence: T2 sequence

[6] = biological target: T5, endogenous AEG-1 (BGC823) (human (endogenous in BGC823)) (UniProt Q86UE4); assay: co-IP; BGC823 cells, treated with 100 ng/ml CXCL12 for 24 h or not; whole-cell lysates (0.5% CHAPS lysis buffer); IP with the anti-AEG-1 antibody; both proteins endogenous; Western blotting
T5 sequence: T2 sequence

binding [3]: binds
B2: endogenous AEG-1 (HEK293T) (protein, UniProt Q86UE4 1-582)
chain: T2 sequence

binding [4]: binds
binding [5]: binds
binding [6]: binds
B3: endogenous PPP1R21 (BGC823) (protein, UniProt Q6ZMI0 1-780)
chain: T1 sequence

The next lines start with the molecule.

Molecule: Myc-PP1cs (Myc-tagged protein phosphatase 1 catalytic subunit) (from UniProt P62136-1 1-330) (enzyme)
binding [1]: binds

B1: endogenous PPP1R21 (HEK293T) (protein, UniProt Q6ZMI0 1-780)
chain: T1 sequence
binding [2]: binds

B4: HA-AEG-1 WT (astrocyte elevated gene-1, HA-tagged) (protein, UniProt Q86UE4 1-582)
chain: T2 sequence
binding [1]: binds
